{
  "source": "patent US20100216732A1",
  "about": "“Azithromycin for the treatment of nodular acne” (priority 2006, published 2010)",
  "origin": "cited, not measured here",
  "tested_on": "nodular cystic acne",
  "details": "cited from earlier work",
  "note": "For at least one compound, name, drawing or mass did not settle the structure.",
  "data": [
    {"smiles": "CN(C)c1ccc(O)c2c1C[C@H]1C[C@H]3[C@H](N(C)C)C(O)=C(C(N)=O)C(=O)[C@@]3(O)C(O)=C1C2=O", "note": "[minocycline]", "values": [
      {"measurement": "Efficacy in treating nodular cystic acne", "setting": "Pigatto study, in words", "result": "not an effective therapy"},
      {"measurement": "Average cyst diameter", "setting": "after 20 weeks of treatment", "result": 10, "unit": "mm"},
      {"measurement": "Average number of cysts", "setting": "after first 10 weeks of treatment, from an average of 20, no further decrease afterwards", "result": 10},
      {"measurement": "Average diameter of cysts", "setting": "after initial 10 week treatment, from 15 mm", "result": 8, "unit": "mm"}
    ]}
  ]
}
